Earlier results in US4880623A, “Process for the preparation of solid nifedipine formulations of high bioavailability and with sustained effect, and formulations thus obtained” (Eurand Italia S.p.A., priority 1985, dated 1989).

COC(=O)C1=C(C)NC(C)=C(C(=O)OC)C1c1ccccc1[N+](=O)[O-] [Nifedipine]
bioavailability of crystalline nifedipine (administered orally, Sugitomo et al.): low
absorption (oral): scarse
